Results on one molecule are retold here after the supplement of paper PMC8728848.

The other results are listed elsewhere or left out.

Assay in all cases: glycan array binding signal (z-score within array); higher = stronger binding
Settings in all cases: glycan notation: IUPAC condensed, linker removed

For assay [1], the target named is Gal(b1-4)GlcNAc(a1-6)Gal(b1-4)GlcNAc. In outline:
(§1)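 Glycan array data were curated from 3228 arrays in the Consortium for Functional Glycomics database and kept only where the protein sequence was available. Glycan names were converted to IUPAC-condensed notation, and columns mapping to the same glycan were averaged. The binding signal is a within-array Z-score, averaged across arrays of the same protein sequence at different concentrations or buffers and across linkers. Negative Z-scores can be read as non-binding.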

The target in assay [2] is Gal(b1-4)GlcNAc(b1-2)Man. An outline of the steps: as §1
Assay [3] addresses Gal(b1-4)GlcNAc(b1-2)Man(a1-3)Man(b1-4)GlcNAc(b1-4)GlcNAc. In outline:
as §1

Assay [4] has as its target Gal(b1-4)GlcNAc(b1-2)Man(a1-3)[Gal(b1-4)GlcNAc(b1-2)Man(a1-6)]Man(b1-4)GlcNAc(b1-4)GlcNAc. In outline: as §1
The target in assay [5] is Gal(b1-4)GlcNAc(b1-2)Man(a1-3)[Gal(b1-4)GlcNAc(b1-2)Man(a1-6)]Man(b1-4)GlcNAc(b1-4)[Fuc(a1-6)]GlcNAc. In outline: as §1
Assay [6] concerns the target Gal(b1-4)GlcNAc(b1-2)Man(a1-3)[Gal(b1-4)GlcNAc(b1-2)Man(a1-6)][Gal(b1-4)GlcNAc(b1-4)]Man(b1-4)GlcNAc(b1-4)[Fuc(a1-6)]GlcNAc. In outline: as §1
Assay [7] deals with Gal(b1-4)GlcNAc(b1-2)Man(a1-3)[Gal(b1-4)GlcNAc(b1-2)Man(a1-6)][GlcNAc(b1-4)]Man(b1-4)GlcNAc(b1-4)[Fuc(a1-6)]GlcNAc. An outline of the steps:
as §1

In assay [8] the target is Gal(b1-4)GlcNAc(b1-2)Man(a1-3)[Gal(b1-4)GlcNAc(b1-2)][GlcNAc(b1-4)]Man(b1-4)GlcNAc(b1-4)GlcNAc. An outline of the steps: as §1
Assay [9] concerns the target Gal(b1-4)GlcNAc(b1-2)Man(a1-3)[GlcNAc(b1-2)Man(a1-6)]Man(b1-4)GlcNAc(b1-4)GlcNAc. An outline of the steps: as §1
Assay [10] has as its target Gal(b1-4)GlcNAc(b1-2)Man(a1-3)[GlcNAc(b1-4)][Gal(b1-4)GlcNAc(b1-2)Man(a1-6)]Man(b1-4)GlcNAc(b1-4)GlcNAc. An outline of the steps: as §1
Assay [11] has as its target Gal(b1-4)GlcNAc(b1-2)Man(a1-3)[Man(a1-6)]Man(b1-4)GlcNAc(b1-4)GlcNAc. An outline of the steps:
as §1

The target of assay [12] is Gal(b1-4)GlcNAc(b1-2)Man(a1-6)Man(b1-4)GlcNAc(b1-4)GlcNAc. In outline: as §1
Assay [13] deals with Gal(b1-4)GlcNAc(b1-2)Man(a1-6)[GlcNAc(b1-2)Man(a1-3)]Man(b1-4)GlcNAc(b1-4)GlcNAc. An outline of the steps: as §1
The target in assay [14] is Gal(b1-4)GlcNAc(b1-2)Man(a1-6)[Man(a1-3)]Man(b1-4)GlcNAc(b1-4)GlcNAc. An outline of the steps:
as §1

Assay [15] deals with Gal(b1-4)GlcNAc(b1-2)[Gal(b1-4)GlcNAc(b1-4)]Man(a1-3)[Gal(b1-4)GlcNAc(b1-2)Man(a1-6)]Man(b1-4)GlcNAc(b1-4)GlcNAc. An outline of the steps:
as §1

Assay [16] concerns the target Gal(b1-4)GlcNAc(b1-2)[Gal(b1-4)GlcNAc(b1-4)]Man(a1-3)[Gal(b1-4)GlcNAc(b1-2)[Gal(b1-4)GlcNAc(b1-6)]Man(a1-6)]Man(b1-4)GlcNAc(b1-4)GlcNAc. An outline of the steps: as §1
Assay [17] concerns the target Gal(b1-4)GlcNAc(b1-2)[Gal(b1-4)GlcNAc(b1-4)]Man(a1-3)[GlcNAc(b1-4)][Gal(b1-4)GlcNAc(b1-2)Man(a1-6)]Man(b1-4)GlcNAc(b1-4)GlcNAc. An outline of the steps:
as §1

Assay [18] addresses Gal(b1-4)GlcNAc(b1-2)[Gal(b1-4)GlcNAc(b1-4)]Man(a1-3)[GlcNAc(b1-4)][Gal(b1-4)GlcNAc(b1-2)[Gal(b1-4)GlcNAc(b1-6)]Man(a1-6)]Man(b1-4)GlcNAc(b1-4)GlcNAc. In outline: as §1
In assay [19] the target is Gal(b1-4)GlcNAc(b1-2)[Gal(b1-4)GlcNAc(b1-6)]Man(a1-6)[Gal(b1-4)GlcNAc(b1-2)Man(a1-3)]Man(b1-4)GlcNAc(b1-4)GlcNAc. In outline:
as §1

The target of assay [20] is Gal(b1-4)GlcNAc(b1-2)[Gal(b1-4)GlcNAc(b1-6)]Man(a1-6)[Gal(b1-4)GlcNAc(b1-2)Man(a1-3)]Man(b1-4)GlcNAc(b1-4)[Fuc(a1-6)]GlcNAc. In outline:
as §1

The target in assay [21] is Gal(b1-4)GlcNAc(b1-2)[Gal(b1-4)GlcNAc(b1-6)]Man(a1-6)[GlcNAc(b1-4)][Gal(b1-4)GlcNAc(b1-2)Man(a1-3)]Man(b1-4)GlcNAc(b1-4)GlcNAc. An outline of the steps:
as §1

Assay [22] deals with Gal(b1-4)GlcNAc(b1-2)[Gal(b1-4)GlcNAc(b1-6)]Man(a1-6)[GlcNAc(b1-4)][Gal(b1-4)GlcNAc(b1-2)[Gal(b1-4)GlcNAc(b1-4)]Man(a1-3)]Man(b1-4)GlcNAc(b1-4)[Fuc(a1-6)]GlcNAc. An outline of the steps: as §1

B1: CRT-1 (Homo sapiens), P27797 (protein)
chain: MLLSVPLLLGLLGLAVAEPAVYFKEQFLDGDGWTSRWIESKHKSDFGKFVLSSGKFYGDEEKDKGLQTSQDARFYALSASFEPFSNKGQTLVVQFTVKHEQNIDCGGGYVKLFPNSLDQTDMHGDSEYNIMFGPDICGPGTKKVHVIFNYKGKNVLINKDIRCKDDEFTHLYTLIVRPDNTYEVKIDNSQVESGSLEDDWDFLPPKKIKDPDASKPEDWDERAKIDDPTDSKPEDWDKPEHIPDPDAKKPEDWDEEMDGEWEPPVIQNPEYKGEWKPRQIDNPDYKGTWIHPEIDNPEYSPDPSIYAYDNFGVLGLDLWQVKSGTIFDNFLITNDEAYAEEFGNETWGVTKAAEKQMKDKQDEEQRLKEEEEDKKRKEEEEAEDKEDDEDKDEDEEDEEDKEEDEEEDVPGQAKDEL
In the case of B1, the “glycan array binding signal (z-score)” value in assay [1] was -0.824; in assay [2] it was 0.889; in [3] it was 0.219; in assay [4], -0.484; in [5], 0.619; in assay [6], -1.18. The “glycan array binding signal (z-score)” value in assay [7] is -0.334; in assay [8], -0.145; in assay [9] it was -0.836; in assay [10], -0.436; in assay [11], -0.277; in assay [12], 0.186. For the same molecule, the “glycan array binding signal (z-score)” value is -0.101 in [13]; 0.275 in assay [14]; 0.215 in assay [15]; 0.003 in [16]; -0.448 in assay [17]; 0.102 in assay [18]. Moreover, the “glycan array binding signal (z-score)” value in assay [19] is -0.519; in assay [20] it was -0.49; in assay [21], -0.231; in [22], -0.451.
